We go through one molecule from article PMC5777986.

The target in the experiment is TatB (E. coli) (UniProt P69425). The experiment in a line: cross-linking; inverted inner membrane vesicles (TatABC, TatEBC, TatEABC) diluted in INV-buffer, DCCD (1 µl of 50 mM in 100 µl) added, 20 min on ice, TCA precipitation, 9% Tricine SDS-PAGE, Western blot with antibodies against TatA, TatB, TatC, TatE.

These are yes or no findings as the source states them, for the method shown. In cells and extracts the contact can be indirect. Binding can be weak; no strength is given.

B1: TatE (protein, UniProt P0A843 1-67)
chain: MGEISITKLLVVAALVVLLFGTKKLRTLGGDLGAAIKGFKKAMNDDDAAAKKGADVDLQAEKLSHKE
Turning to B1, the binding result is “binds”.
